Assay results: PubChem BioAssay AID488913 (National Center for Advancing Translational Sciences (NCATS), 2010)
The shares of active, inactive and inconclusive entries below differ from those in the screen. Potencies beside an inconclusive call are fits to weak or partial responses and may not hold up. Activity calls are given as the source filed them. The call rests on the fitted dose curve; in most records, active means well fitted inhibition curve with a large enough effect; inconclusive means small, poorly fitted or top-dose-only effect, or effect the other way; inactive means no such curve, though single readings can be large or run the other way.

Experiment: Confirmation Concentration-Response Assay for lipid storage modulators: for probe SAR
Conditions: Drosophila S3 cells, BODIPY lipid droplet fluorescence, 18-24 h; activity change, negative = lipid storage inhibition: at 46.1 µM (top of the series)
From the text: NIH Molecular Libraries Probe Production Centers Network [MLPCN] NIH Chemical Genomics Center [NCGC] MLPCN Grant: 1 R03 MH085686-01 Assay Submitter (PI): Beller, Mathias; Max-Planck-Institut fur Biophysikalische Chemie NCGC Assay Overview: Storing lipids as a reservoir for energy or the anabolism of elementary metabolites is a common feature of probably all cells and is conserved from bacteria to humans. The universal cellular lipid storage organelle is the so-called lipid storage droplet (LD). Although ubiquitous, LDs share a simple structure composed of a hydrophobic core that harbors the storage lipids, which is shielded by a droplet-specific phospholipid monolayer to which proteins are attached. The current model of LD biogenesis involves an incorporation of the lipid core into the membrane leaflets of the endoplasmic reticulum (ER) followed by a subsequent budding-like maturation of a LD, which ultimately pinches off. Once released, LD volume can increase by localized lipogenesis or fusion of existing droplets. Storage lipids are re-mobilized enzymatically by lipase activity. Lipase regulation in the adipocyte is heavily studied and involves multiple components including catecholamine signaling, the LD-associated proteins Perilipin and comparative gene identification-58 (CGI-58) and at least two lipases named hormone sensitive lipase (HSL) and adipocyte triglyceride lipase (ATGL). LD regulation outside of the adipocyte is poorly understood and only few components are known. However, there is an urgent need to learn more about ectopic fat depots as mislocalized storage of lipids, for example in the liver or muscle, is an eminent health problem associated with insulin resistance or the metabolic syndrome. We developed a laser-scanning cytometer assay to enable 1,536-well screening and combined the results of the small molecules screen with an RNAi database based on lipid storage.
We dispensed 4 uL of cells at 1.25 x 10^6 cells/mL into LoBase Aurora COC 1,536-well plates (black walled, clear bottom) with a bottle-valve solenoid-based dispenser (Aurora) to obtain 5,000 cells/well. Triacsin C (Sigma-Aldrich T-4540), an inhibitor of long-chain fatty acyl CoA synthetase that blocks synthesis of triglycerides, was used as a positive control for lipid under-storage. A total of 23 nL of compound solution of different concentrations were transferred to the assay plates using a Kalypsys pin tool equipped with a 1,536-pin array containing 10-nL slotted pins (FP1S10, 0.457-mm diameter, 50.8 mm long; V&P Scientific). One microliter of oleic acid (400 uM) was added, and the plate was lidded with stainless steel rubber gasket lined lids containing pinholes. After 18-24 h incubation at 24 degree Celsius and 95% humidity, 4 uL of the dyes BODIPY 493/503 (Molecular Probes) and the Cell Tracker Red CMTPX dye (Molecular Probes) were added to the wells to stain lipid droplets and enumerate cell number, respectively. Fluorescence was detected by excitation of the fluorophores with a 488-nm laser on an Acumen Explorer (TTP Lab Tech). The total intensity in channel 1 (500-530 nm) reflected lipid droplet accumulation. Cells were detected using channel 3 (575- 640 nm) with 5-um width and 100-um depth filters. The ratio of the total intensity in PMT channel 1 over total intensity of channel 3 was also calculated. Percent activity was computed relative to an internal control (100% inhibited lipid droplet deposition due to the presence of 20 uM Triacsin C), which was added to 32 wells/plate.

Q: For O=C(NC1CCCc2c1cnn2-c1ccc(F)cc1F)c1ccc(C2(C(F)(F)F)N=N2)cc1 (stereo not given), which Potency is on record?
A: inconclusive: 15.8 µM [falling, partial curve, poor fit]

Q: For O=C(Cc1cccs1)Nc1nc(-c2ccncc2)cs1, which Potency is on record?
A: inconclusive: 8.88 µM [activator, partial curve, poor fit]

Q: For CCOc1ccc(CCNC(=O)C2=C(C)OCCO2)cc1OCC, which Potency is on record?
A: inconclusive: 6.28 µM [activator, full curve]

Q: With Cc1cccc(-c2ccc3ncnc(NCc4cccc(F)c4)c3c2)c1 as the compound, how does the Potency read?
A: inconclusive: 31.5 µM [falling, single point]

Q: With CCn1c(-c2ccc(C)cc2)cnc1SCC(=O)Nc1nc(C)cs1 as the compound, how does the Potency read?
A: inconclusive: 6.28 µM [activator, partial curve, poor fit]

Q: Which Potency does the source give for Cc1ccc(NC(=O)c2ccc(CN3CCN(C)CC3)cc2)cc1Nc1nc(-c2cccnc2)cs1 here?
A: inconclusive: 3.53 µM [activator, single point]

Q: With Cc1ccc(-c2cnc(SCC(=O)Nc3nccs3)n2Cc2ccco2)cc1 as the compound, how does the “activity change, negative = lipid storage inhibition” value read?
A: inactive: 13.8%

Q: With CC(C)(C)n1ncc2c(=O)n(Cc3ccc(-c4ccccc4C#N)cc3)cnc21 as the compound, how does the Potency read?
A: inconclusive: 12.5 µM [falling, full curve, poor fit]

Q: With COc1ccc(Cl)cc1NC(=S)N1CCN(c2ccccn2)CC1 as the compound, how does the Potency read?
A: inconclusive: 0.996 µM [activator, full curve]

Q: For COCCn1c(-c2ccc(C)cc2)cnc1SCC(=O)Nc1nc(C)cs1, which Potency is on record?
A: inconclusive: 3.97 µM [activator, full curve, poor fit]

Q: For CCOC(=O)C1CCN(C(=O)C(C)(C)NC(=O)Nc2ccccc2Cl)CC1, which Potency is on record?
A: active: 0.628 µM

Q: Which Potency does the source give for S=C(Nc1cc(Cl)ccc1Oc1ccccc1)N1CCN(c2ncccn2)CC1 here?
A: active: 12.5 µM

Q: With COc1ccc(-c2cnc(SCC(=O)Nc3nccs3)n2Cc2ccccc2)cc1 as the compound, how does the Potency read?
A: inconclusive: 1.25 µM [activator, full curve, poor fit]

Q: For CCOc1ccc(CCNC(=O)c2cc3sccc3n2Cc2ccc(-n3cncn3)cc2)cc1OCC, which Potency is on record?
A: active: 0.177 µM

Q: Which Potency does the source give for CCOc1ccc(CCNC(=O)C2(c3ccccc3)CC2)cc1OCC here?
A: inconclusive: 12.5 µM [activator, partial curve, poor fit]

Q: Which Potency does the source give for COc1ccc(Cl)cc1NC(=S)N1CCN(c2cccc(Cl)c2)CC1 here?
A: inconclusive: 2.81 µM [activator, partial curve, poor fit]

Q: With CCOc1ccc(CCNC(=O)c2cc3sccc3n2CC=C(C)C)cc1OCC as the compound, how does the Potency read?
A: active: 0.0791 µM

Q: With CCOc1ccc(CCNC(=O)c2cc3sccc3n2Cc2cccnc2)cc1OCC as the compound, how does the Potency read?
A: active: 0.353 µM

Q: With O=C(NCCc1ccc(O)c(O)c1)c1cc2sccc2[nH]1 as the compound, how does the Potency read?
A: inconclusive: 15.3 µM [activator, partial curve]

Q: With CCn1c(C(=O)NCc2ccc(OC)c(OC)c2)cc2sccc21 as the compound, how does the Potency read?
A: inconclusive: 25 µM [falling, partial curve]

Q: Which “activity change, negative = lipid storage inhibition” value does the source give for CCOc1ccc(CCNC(=O)Cc2ccccc2)cc1OCC here?
A: inactive: 0%

Q: Which “activity change, negative = lipid storage inhibition” value does the source give for O=C(O)CCc1ccc(NCc2cccc(Oc3ccccc3)c2)cc1 here?
A: inactive: 24.2%

Q: For CCOc1ccc(CCNC(=O)c2ccc3ccccc3n2)cc1OCC, which Potency is on record?
A: inconclusive: 0.126 µM [activator, full curve, poor fit]

Q: For CCOC(=O)C1CCN(C(=O)CNC(=O)Nc2ccccc2Cl)CC1, which Potency is on record?
A: inconclusive: 11.2 µM [activator, full curve, poor fit]

Q: For CCOc1ccc(CCNC(=O)c2cc3ccccc3n2C)cc1OCC, which Potency is on record?
A: active: 7.91 µM

Q: For CCn1c(C(=O)NCCc2ccc(OC)cc2)cc2sccc21, which “activity change, negative = lipid storage inhibition” value is on record?
A: inactive: 108%

Q: For O=C(NC1CCCc2c1cnn2-c1ccc(F)cc1F)c1cccc(=O)[nH]1 (stereo not given), which Potency is on record?
A: active: 7.91 µM

Q: With COc1ccc(Cl)cc1NC(=O)N1CCN(c2ccccn2)CC1 as the compound, how does the Potency read?
A: inconclusive: 3.97 µM [activator, full curve, poor fit]

Q: With Cc1csc(NC(=O)CSc2ncc(-c3ccccc3)n2Cc2ccco2)n1 as the compound, how does the Potency read?
A: inconclusive: 0.445 µM [activator, full curve, poor fit]

Q: Which Potency does the source give for Cc1cc2c(cc1C1(c3ccc(C(=O)O)cc3)CC1)C(C)(C)CCC2(C)C here?
A: inconclusive: 15.8 µM [activator, partial curve, poor fit]

Q: Which “activity change, negative = lipid storage inhibition” value does the source give for O=C(Cc1ccccc1)NC1CCCc2c1cnn2-c1ccc(F)cc1F (stereo not given) here?
A: inactive: -6.41%

Q: With CCOc1ccc(CCNC(=O)c2ccc(C3(C(F)(F)F)N=N3)cc2)cc1OCC as the compound, how does the Potency read?
A: inconclusive: 4.45 µM [falling, partial curve, poor fit]

Q: For Cc1ccc(C)c(-c2csc(NC(=O)CSc3nnc(Nc4ccc(OC(F)(F)F)cc4)s3)n2)c1, which “activity change, negative = lipid storage inhibition” value is on record?
A: inactive: 6.55%

Q: Which “activity change, negative = lipid storage inhibition” value does the source give for CCOc1ccc(CCNC(=O)CN(C)C)cc1OCC here?
A: inactive: 29.5%

Q: Which Potency does the source give for COc1ccccc1NC(=S)N1CCN(c2cc(Cl)ccc2C)CC1 here?
A: inconclusive: 1.58 µM [activator, partial curve, poor fit]

Q: Which Potency does the source give for O=C(N[C@H]1CCCc2c1cnn2-c1ccc(F)cc1F)c1ccccn1 here?
A: active: 7.91 µM

Q: For O=C(c1cc2sccc2n1Cc1ccccc1)N(CCc1ccc(O)c(O)c1)Cc1ccccc1, which Potency is on record?
A: inconclusive: 0.396 µM [activator, full curve, poor fit]

Q: For CCOc1ccc(CCNC(=O)c2ccccn2)cc1OCC, which Potency is on record?
A: inconclusive: 12.5 µM [activator, partial curve]

Q: Which Potency does the source give for CCOc1ccc(NC(=O)NC2(C(=O)N3CCCCC3)CCCCC2)cc1 here?
A: inconclusive: 2.81 µM [activator, full curve, poor fit]

Q: With CCn1c(C(=O)NCCc2ccc(OC)c(OC)c2)cc2sc(Cl)cc21 as the compound, how does the Potency read?
A: active: 9.71 µM
